PubChem BioAssay AID1159584, Peter MacCallum Cancer Centre | 2016

Assay: 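Genes whose loss is lethal only together with E-cadherin loss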 (primary screen)
Cell system: human MCF10A breast epithelial cells, parental and CDH1-null
Knock-down reagent: siRNA against human genes
Measurement: 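ATP luminescence (CellTiter-Glo) viability per line relative to mean mock wells over all plates, and the ratio of CDH1-null to parental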
Direction: CDH1-null / parental viability ratio: higher = CDH1-null cells survive relatively better than parental; CDH1-null viability vs mock: higher = more viable CDH1-null cells; parental viability vs mock: higher = more viable parental cells
The deposit covers about 18,000 reagents; this is a random part of them. Reagents against one gene are numbered here. Not given: the amount of reagent, the time to read-out.

no.	Target gene	siRNA no.	CDH1-null / parental viability ratio	CDH1-null viability vs mock (fraction of mock)	parental viability vs mock (fraction of mock)
1	HAUS4	1	0.9	0.77	0.86
2	TMEM164	1	1.74	0.33	0.19
3	ADAMTSL4	1	1	0.98	0.98
4	RNFT2	1	1.09	0.49	0.45
5	SERPINB7	1	1.02	1.04	1.02
6	SIRPD	1	1.11	0.8	0.72
7	KRT74	1	0.84	0.94	1.12
8	KRTAP9-4	1	1.19	0.88	0.74
9	SPTBN1	1	1.03	0.69	0.67
10	YIPF6	1	1.24	1.1	0.89
11	LCE2B	1	0.69	0.8	1.16
12	CDC45	1	0.87	0.55	0.63
13	PFN3	1	1.28	0.82	0.64
14	EOMES	1	0.92	0.88	0.96
15	DHODH	1	0.94	0.92	0.98
16	EARS2	1	1.19	0.94	0.79
17	VOPP1	1	1.32	0.95	0.72
18	CIBAR2	1	0.8	0.82	1.02
19	PRIMPOL	1	1.03	0.78	0.76
20	FBXO43	1	1.03	0.89	0.86
21	IPO8	1	1.18	1.04	0.88
22	CHST8	1	1.09	0.73	0.67
23	MFN2	1	0.83	0.8	0.96
24	PAX7	1	0.83	0.6	0.72
25	FOXN1	1	0.93	0.84	0.9
26	SLCO5A1	1	1.28	0.69	0.54
27	PTGFRN	1	0.71	0.54	0.76
28	RRAS	1	0.88	0.76	0.86
29	STRC	1	0.96	0.68	0.71
30	ZKSCAN4	1	1.02	0.96	0.94
31	PHIP	1	1.08	0.78	0.72
32	FAR2	1	1.2	1	0.83
33	ZNF653	1	0.81	0.72	0.89
34	ARHGAP20	1	0.9	0.45	0.5
35	STK10	1	1.06	0.82	0.77
36	HDHD3	1	1.08	0.84	0.78
37	PYGO1	1	1.15	0.62	0.54
38	OCRL	1	1.17	0.97	0.83
39	USP16	1	1.21	0.86	0.71
40	LRRC37A3	1	1.03	0.94	0.91
41	GPS2	1	1.13	1.13	1
42	MAGOHB	1	1.06	1	0.94
43	RGS7BP	1	0.79	0.66	0.84
44	LCP1	1	1.15	0.86	0.75
45	NTN5	1	1.3	1.16	0.89
46	HLTF	1	0.82	0.51	0.62
47	RBM8A	1	1.17	0.34	0.29
48	HCFC2	1	1.07	0.92	0.86
49	DUSP22	1	1.19	0.87	0.73
50	FAM186B	1	0.96	0.94	0.98
51	RMC1	1	1.29	1.34	1.04
52	GABRG1	1	1.2	1.09	0.91
53	SAGE1	1	1.22	0.9	0.74
54	ENTR1	1	1.15	0.99	0.86
55	HCN1	1	1.11	0.8	0.72
56	LAP3	1	1.18	0.85	0.72
57	P3H2	1	1.07	0.9	0.84
58	CT45A3	1	1.28	0.97	0.76
59	CT45A3	2	1.21	0.87	0.72
60	NME1-NME2	1	1.5	0.63	0.42
61	SP140	1	1.04	0.87	0.84
62	LOXL4	1	0.92	1.02	1.11
63	EDN2	1	1.46	0.54	0.37
64	SPAG1	1	1.56	0.28	0.18
65	FAM53A	1	0.69	0.61	0.88
66	SLC38A11	1	1.02	0.51	0.5
67	ABCA6	1	1.02	0.9	0.88
68	KRTAP9-3	1	1.31	0.68	0.52

Individual results from the list.
Under “parental viability vs mock (fraction of mock)”, FAR2 shows 0.83
Value of ABCA6 in “CDH1-null viability vs mock (fraction of mock)”: 0.9
Result of SLC38A11 in “parental viability vs mock (fraction of mock)”: 0.5
Under “parental viability vs mock (fraction of mock)”, HCFC2 reads 0.86
Under “CDH1-null / parental viability ratio”, MAGOHB is entered as 1.06
Value of ARHGAP20 in “CDH1-null viability vs mock (fraction of mock)”: 0.45
